Literature values in US20090203685A1, “ANTI-PROLIFERATIVE COMPOUNDS FROM A 3-ARYL-COUMARINE OR 3-ARYL-QUINOLIN-2-ONE AND USES THEREOF” (EOS (ETHICAL ONCOLOGY SCIENCE) S.P.A., priority 2006, published 2009).
At least one structure is not confirmed: it was looked up by name or label, or the drawing left a doubt.

Test system: breast and prostate tumor cell lines
Conditions: cited from earlier work

Compound: Cc1cc2c(C(C)C)c(O)c(O)c(C=O)c2c(O)c1-c1c(C)cc2c(C(C)C)c(O)c(O)c(C=O)c2c1O [Gossypol]
- Growth of breast and prostate tumor cell lines in vitro: inhibit growth
